For at least one compound, name, drawing or mass did not settle the structure.
Test system: rat stellate ganglion (SG) neurons
Experiment: Stellate ganglion neuron uptake and Ca2+ current recording
Settings: 1 μM, control and CPNP-treated neurons

## CC(C)C[C@H](NC(=O)[C@H](CCCCN)NC(=O)[C@H](CCCN=C(N)N)NC(=O)[C@H](C)NC(=O)[C@H](CO)NC(=O)[C@H](CCCCN)NC(=O)[C@H](CCCN=C(N)N)NC(=O)[C@H](C)NC(=O)CNC(=O)[C@@H](NC(=O)[C@H](Cc1ccccc1)NC(=O)CNC(=O)CNC(=O)[C@@H](N)Cc1ccccc1)[C@@H](C)O)C(=O)N[C@@H](C)C(=O)N[C@@H](CC(N)=O)C(=O)N[C@@H](CCC(N)=O)C(=O)O [nociceptin]
  effect on Ca2+ currents: typical voltage-dependent inhibition of Ca^2+ currents

From patent publication US8771741B2, “In vivo photodynamic therapy of cancer via a near infrared agent encapsulated in calcium phosphate nanoparticles” (The Penn State Research Foundation, priority 2009, dated 2014)
